Measurements taken from PMC9426566.
Results are given in words; binding and its absence hold for the method and conditions named. Binding seen in cells or lysates may run through a third protein.

Protein sequences, listed by entry. Tags and fused reporters are not part of them.
UniProt Q99321: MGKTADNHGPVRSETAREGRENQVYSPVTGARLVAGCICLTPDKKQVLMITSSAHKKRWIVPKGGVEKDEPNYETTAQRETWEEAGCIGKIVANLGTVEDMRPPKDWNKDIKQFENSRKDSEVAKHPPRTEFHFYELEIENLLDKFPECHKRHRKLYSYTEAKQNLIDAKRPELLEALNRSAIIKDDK
UniProt P38698: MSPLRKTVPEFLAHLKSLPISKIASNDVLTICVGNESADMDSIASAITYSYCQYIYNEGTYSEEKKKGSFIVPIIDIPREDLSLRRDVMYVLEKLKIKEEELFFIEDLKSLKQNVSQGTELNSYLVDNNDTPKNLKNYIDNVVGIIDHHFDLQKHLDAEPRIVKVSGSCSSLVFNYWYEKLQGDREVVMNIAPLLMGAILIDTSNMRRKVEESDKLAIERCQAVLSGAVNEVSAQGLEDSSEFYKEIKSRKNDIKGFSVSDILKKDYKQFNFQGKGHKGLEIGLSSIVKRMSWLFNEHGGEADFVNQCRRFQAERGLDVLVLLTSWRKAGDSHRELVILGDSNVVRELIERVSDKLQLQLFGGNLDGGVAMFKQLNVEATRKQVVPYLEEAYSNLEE

Molecular target: 3HA-Ddp1 (diphosphoinositol polyphosphate phosphohydrolase, endopolyphosphatase) (S. cerevisiae) (UniProt Q99321)
Assay: co-IP; 3HA-Ddp1 immunoprecipitated from yeast lysate with anti-HA antibody and protein A beads; lysis buffer 0.1% NP-40, 150 mM NaCl, 50 mM Tris-HCl pH 8, 10% glycerol; 4°C; blot with anti-HA and anti-Ppx1

binding: no binding
Substance: Ppx1 (exopolyphosphatase) (from UniProt P38698 1-397) (enzyme)
